Data on two molecules can be found in patent publication US20120213794A1.

Amino acid sequences for entries named in this document (tags omitted). A change or cut given only in a name is not applied to a line headed by its entry.
UniProt P55899: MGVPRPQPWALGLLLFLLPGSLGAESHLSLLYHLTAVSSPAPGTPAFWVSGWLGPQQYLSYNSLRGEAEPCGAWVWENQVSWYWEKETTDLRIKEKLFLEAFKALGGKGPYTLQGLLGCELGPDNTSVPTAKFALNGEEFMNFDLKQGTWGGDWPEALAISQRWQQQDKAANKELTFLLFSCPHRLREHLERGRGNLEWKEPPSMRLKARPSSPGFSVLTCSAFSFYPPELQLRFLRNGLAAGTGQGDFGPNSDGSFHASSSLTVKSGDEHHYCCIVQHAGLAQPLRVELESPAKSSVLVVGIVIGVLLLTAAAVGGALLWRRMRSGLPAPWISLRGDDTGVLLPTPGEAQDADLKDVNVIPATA

No constants are given. Whether binding was seen depends on the method and setting. Binding calls can cover weak binding; strength is not graded here.

The target in the test is human FcRn (human) (UniProt P55899). Put plainly: Biacore T-100; FcRn immobilized on CM5, 100 nM mAb at pH 6.0, dissociation at pH 7.3. (In SPR one partner is held on a chip, and binding of the other changes the refractive index at the surface.)

B1: AX132 IgG2 (antibody)
heavy: EVQLLESGGGLVQPGGSLRLSCKASGYTFSSYGMYWVRQAPGKGLEWIGWIDPGSGGTKYNEKFKGKATISRDNSKNTLYLQMNSLRAEDTAVYYCARERYGYYFDYWGQGTLVTVSSASTKGPSVFPLAPCSRSTSESTAALGCLVKDYFPEPVTVSWNSGALTSGVHTFPAVLQSSGLYSLSSVVTVPSSNFGTQTYTCNVDHKPSNTKVDKTVERKCCVECPPCPAPPVAGPSVFLFPPKPKDTLMISRTPEVTCVVVDVSHEDPEVQFNWYVDGVEVHNAKTKPREEQFNSTFRVVSVLTVVHQDWLNGKEYKCKVSNKGLPAPIEKTISKTKGQPREPQVYTLPPSREEMTKNQVSLTCLVKGFYPSDIAVEWESNGQPENNYKTTPPMLDSDGSFFLYSKLTVDKSRWQQGNVFSCSVMHEALHNHYTQKSLSLSPGK
VL: EIVLTQSPATLSLSPGERATITCRASQYVGSYLNWYQQKPGQAPRLLIYDASNRATGIPARFSGSGSGTDFTLTISSLEPEDFAVYYCQVWDSSPPVVFGGGTKVEIK
On to B1, for which the binding entry is on record as “binds”.

B2: AX213 IgG2 (antibody)
heavy: EVQLLESGGGLVQPGGSLRLSCKASGYTFSRYGINWVRQAPGKGLEWIGRIDPGNGGTRYNEKFKGKATISRDNSKNTLYLQMNSLRAEDTAVYYCARANDGYSFDYWGQGTLVTVSSASTKGPSVFPLAPCSRSTSESTAALGCLVKDYFPEPVTVSWNSGALTSGVHTFPAVLQSSGLYSLSSVVTVPSSNFGTQTYTCNVDHKPSNTKVDKTVERKCCVECPPCPAPPVAGPSVFLFPPKPKDTLMISRTPEVTCVVVDVSHEDPEVQFNWYVDGVEVHNAKTKPREEQFNSTFRVVSVLTVVHQDWLNGKEYKCKVSNKGLPAPIEKTISKTKGQPREPQVYTLPPSREEMTKNQVSLTCLVKGFYPSDIAVEWESNGQPENNYKTTPPMLDSDGSFFLYSKLTVDKSRWQQGNVFSCSVMHEALHNHYTQKSLSLSPGK
light: EIVLTQSPATLSLSPGERATITCRASQYVGSYLNWYQQKPGQAPRLLIYDASNRATGIPARFSGSGSGTDFTLTISSLEPEDFAVYYCQVWDSSPPVVFGGGTKVEIKRTVAAPSVFIFPPSDEQLKSGTASVVCLLNNFYPREAKVQWKVDNALQSGNSQESVTEQDSKDSTYSLSSTLTLSKADYEKHKVYACEVTHQGLSSPVTKSFNRGEC
As to B2, the binding result was “binds”.
